Experimental data: patent US20080022467A1, “Disazo dyes and their preparation and use” (ILFORD Imaging Switzerland GmbH, priority 2006, published 2008)

Legend:
[1] = Dye diffusion of printed grid patches on storage; parameters: key: A: excellent; B: good; C: satisfactory; D: unsatisfactory; details: 7 days, 40° C., 80% relative humidity; for Dye Diffusion (Class) on Recording Sheet A: A: HP Printing Paper HPP 1122 (paper); for Dye Diffusion (Class) on Recording Sheet B: B: HP Premium Plus (polymer based); for Dye Diffusion (Class) on Recording Sheet C: C: ILFORD Galerie Smooth Glossy (nanoporous); for Dye Diffusion (Class) on Recording Sheet D: D: ILFORD Printasia Premium Photo Glossy Paper (nanoporous); for Dye Diffusion (Class) on Recording Sheet E: E: ILFORD Galerie Classic Gloss Paper (polymer based); for Dye Diffusion (Class) on Recording Sheet F: F: EPSON Premium Glossy Photo Paper (nanoporous); for Dye Diffusion (Class) on Recording Sheet G: G: CANON Photo Paper Pro PR-101 (nanoporous)
[2] = Color saturation C* of printed patches; parameters: key: A: excellent; B: good; C: satisfactory; D: unsatisfactory; details: for Color Saturation C* (Class) on Recording Sheet A: A: HP Printing Paper HPP 1122 (paper); for Color Saturation C* (Class) on Recording Sheet B: B: HP Premium Plus (polymer based); for Color Saturation C* (Class) on Recording Sheet C: C: ILFORD Galerie Smooth Glossy (nanoporous); for Color Saturation C* (Class) on Recording Sheet D: D: ILFORD Printasia Premium Photo Glossy Paper (nanoporous); for Color Saturation C* (Class) on Recording Sheet E: E: ILFORD Galerie Classic Gloss Paper (polymer based); for Color Saturation C* (Class) on Recording Sheet F: F: EPSON Premium Glossy Photo Paper (nanoporous); for Color Saturation C* (Class) on Recording Sheet G: G: CANON Photo Paper Pro PR-101 (nanoporous)

Row | Compound | Dye Diffusion (Class) on Recording Sheet A [1] | Dye Diffusion (Class) on Recording Sheet B [1] | Dye Diffusion (Class) on Recording Sheet C [1] | Dye Diffusion (Class) on Recording Sheet D [1] | Dye Diffusion (Class) on Recording Sheet E [1] | Dye Diffusion (Class) on Recording Sheet F [1] | Dye Diffusion (Class) on Recording Sheet G [1] | Color Saturation C* (Class) on Recording Sheet A [2] | Color Saturation C* (Class) on Recording Sheet B [2] | Color Saturation C* (Class) on Recording Sheet C [2] | Color Saturation C* (Class) on Recording Sheet D [2] | Color Saturation C* (Class) on Recording Sheet E [2] | Color Saturation C* (Class) on Recording Sheet F [2] | Color Saturation C* (Class) on Recording Sheet G [2]
1 | Cc1cc(Nc2nc(NCCO)nc(Nc3ccc(/N=N/c4cc(S(=O)(=O)[O-])c5cccc(S(=O)(=O)[O-])c5c4)c(C)c3)n2)ccc1/N=N/c1cc(S(=O)(=O)[O-])c2cccc(S(=O)(=O)[O-])c2c1.[Na+].[Na+].[Na+].[Na+] [Dye No. II, Direct Yellow 86, reference compound] | A | D | C | B | C | C | A | D | D | D | D | D | D | D
2 | O=S(=O)([O-])c1cc(/N=N/c2ccc(Nc3nc(NCCCN4CCOCC4)nc(Nc4ccc(/N=N/c5cc(S(=O)(=O)[O-])c6cccc(S(=O)(=O)[O-])c6c5)cc4)n3)cc2)cc2c(S(=O)(=O)[O-])cccc12.[Na+].[Na+].[Na+].[Na+] [Dye No. IV, reference compound] | A | C | B | A | B | A | B | C | B | C | B | B | A | B
3 | Direct Yellow 132 [Dye No. III, reference compound] | A | D | C | C | D | D | A | A | A | A | A | A | A | A
